PubChem BioAssay AID493246 – Drosophila RNAi Screening Center, 2011
Assay: 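Genome-wide search for dsRNAs that reduce cell number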 (primary screen). System: Drosophila Kc and S2R+ cells. Reagents: long dsRNA against Drosophila genes. Read-out: 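Raw, unnormalised count of remaining cells in each well; per-plate z-scores of cell number underlie the calls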. Direction: Kc cell number and S2R+ cell number: higher = more cells remaining. Call rule: 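Counted as a hit if cell number falls by a z-score of at least 3 within its plate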.
In all, the deposit lists about 21,000 reagents; this is an unselected part of those that have a named target and a result. Over the whole deposit, 429 (2%) got an active call. 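Values are raw and not normalised between plates; calls rest on per-plate z-scores that were not deposited.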 A number with no mark means an inactive call. No sequences are given here. The record does not give: the amount of reagent, the time to read-out.

gene	dsRNA	Kc cell number, rep 1	Kc cell number, rep 2	S2R+ cell number, rep 1	S2R+ cell number, rep 2
CG5961	DRSC15927	1.75e6	1.90e6	1.44e6	1.52e6
CG2930	DRSC17730	5.57e5		8.61e5	
CG14036	DRSC02361	1.57e6	1.48e6	1.15e6	1.36e6
CG15599	DRSC19668	1.42e6	1.46e6	1.06e6	1.10e6
Rchy1	DRSC02542	1.48e6	1.37e6	1.00e6	1.10e6
TwdlG	DRSC12229	1.40e6	1.80e6	1.25e6	1.36e6
CG34232	DRSC05332	1.43e6	1.38e6	8.96e5	1.04e6
CG14731	DRSC14952	1.78e6	1.81e6	1.39e6	1.54e6
comm2	DRSC09881	1.49e6	1.49e6	1.16e6	1.34e6
comm2	DRSC10877	1.29e6	1.54e6	1.32e6	1.44e6
Hr51	DRSC06627	1.69e6	1.72e6	1.23e6	1.48e6
CG12547	DRSC07759	1.32e6	1.35e6	9.71e5	1.22e6
cav	DRSC15995	1.47e6	1.55e6	1.08e6	1.12e6
CG40341 (retired record)	DRSC01767	5.09e5		8.26e5	
CG40341 (retired record)	DRSC03750	5.14e5		8.30e5	
CG43707	DRSC00280	1.65e6	1.53e6	1.23e6	1.39e6
RpL26	DRSC10726	9.21e5 (active)	1.03e6	6.91e5	8.06e5
CG9536	DRSC03254	1.43e6	1.49e6	7.48e5	8.62e5
Hsp60D	DRSC02543	1.61e6	1.81e6	1.12e6	1.12e6
CG12826	DRSC06175	1.74e6	1.79e6	1.30e6	1.50e6
CG11300	DRSC04104	1.61e6	1.64e6	1.24e6	1.41e6
fan	DRSC10930	1.29e6	1.28e6	1.25e6	1.32e6
Swip-1	DRSC02083	1.27e6	1.34e6	1.17e6	1.20e6
Swip-1	DRSC02084	1.43e6	1.50e6	1.23e6	2.89e5

The list goes on, starting with the last 3 of the part before.
gene	dsRNA	Kc cell number, rep 1	Kc cell number, rep 2	S2R+ cell number, rep 1	S2R+ cell number, rep 2
fan	DRSC10930	1.29e6	1.28e6	1.25e6	1.32e6
Swip-1	DRSC02083	1.27e6	1.34e6	1.17e6	1.20e6
Swip-1	DRSC02084	1.43e6	1.50e6	1.23e6	2.89e5
POLDIP2	DRSC12194	1.55e6	1.64e6	1.27e6	1.33e6
CG42724	DRSC12567	1.65e6	1.71e6	1.15e6	1.25e6
CG9853	DRSC12343	1.32e6	1.36e6	1.01e6	1.20e6
CG8539	DRSC10988	1.44e6	1.50e6	1.36e6	1.26e6
Gr58a	DRSC03910	5.30e5		8.32e5	
CG17760	DRSC06694	1.65e6	1.98e6	1.47e6	1.62e6
CG15927	DRSC19742	1.53e6	1.40e6	1.11e6	1.21e6
Pka-C3	DRSC09402	1.48e6	1.61e6	1.16e6	1.32e6
Pka-C3	DRSC11254	1.52e6	1.89e6	1.10e6	1.25e6
SoxN	DRSC03440	1.52e6	1.54e6	1.07e6	1.18e6
Mtp	DRSC03216	1.32e6	1.37e6	1.04e6	1.02e6
CycK	DRSC03714	1.40e6	1.51e6	1.07e6	1.14e6
Rh7	DRSC10529	1.42e6	1.48e6	9.71e5	9.84e5
CG33116	DRSC02045	1.37e6	1.55e6	1.19e6	1.24e6
HDAC3	DRSC12352	1.63e6	1.71e6	1.29e6	1.35e6
CG8243	DRSC07122	1.74e6	1.90e6	1.26e6	1.37e6
